{"source": "PubChem BioAssay AID743454 (Peter MacCallum Cancer Centre, 2014)", "assay": "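Search for knock-downs that restore vorinostat killing in resistant colon cancer cells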 (primary screen)", "system": "human HCT116-VR colon cancer cells, selected for vorinostat resistance", "reagent": "siRNA pool against human genes, 40 nM siRNA pool", "timing": "vorinostat for 24 h, read-out about 72 h after transfection", "treatment": "vorinostat at 2.5 µM final", "measurement": "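Cell viability by CellTiter-Fluor and caspase 3/7 activity by luminescence, each scaled to mock wells per plate, duplicates averaged, then robust z-scored over all plates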", "direction": "viability robust z-score: higher = more viable cells than screen typical; caspase robust z-score: higher = more caspase 3/7 activity than screen typical", "hit rule": "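a knock-down is a hit when classed RV1 or RV2 for lowered viability, or CA1 or CA2 for caspase activation; those lethal without drug were dropped; hits were retested singly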", "note": "In all, the deposit lists about 18,000 reagents; shown is an unselected part. 450 of all reagents (2.5%) were called active. 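Single biological run; no consistent viability z cut-off exists, so the class columns, not z-scores, define the calls.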"}
The first 2 entries as a preview:
{"gene":"INO80 (INO80 complex ATPase subunit)","viability hit class":"no change","caspase hit class":"no change","viability robust z-score":-0.16,"caspase robust z-score":1.58,"call":"inactive"}
{"gene":"GNB1L (G protein subunit beta 1 like)","viability hit class":"no change","caspase hit class":"no change","viability robust z-score":-0.38,"caspase robust z-score":0.37,"call":"inactive"}

Results, from the first entry:
{"gene":"INO80 (INO80 complex ATPase subunit)","viability hit class":"no change","caspase hit class":"no change","viability robust z-score":-0.16,"caspase robust z-score":1.58,"call":"inactive"}
{"gene":"GNB1L (G protein subunit beta 1 like)","viability hit class":"no change","caspase hit class":"no change","viability robust z-score":-0.38,"caspase robust z-score":0.37,"call":"inactive"}
{"gene":"SUCLG2 (succinate-CoA ligase GDP-forming subunit beta)","viability hit class":"no change","caspase hit class":"no change","viability robust z-score":-1.06,"caspase robust z-score":-0.12,"call":"inactive"}
{"gene":"CCK (cholecystokinin)","viability hit class":"no change","caspase hit class":"no change","viability robust z-score":-1.03,"caspase robust z-score":-0.76,"call":"inactive"}
{"gene":"BBOF1 (basal body orientation factor 1)","viability hit class":"no change","caspase hit class":"no change","viability robust z-score":-0.44,"caspase robust z-score":-0.43,"call":"inactive"}
{"gene":"SNRPB (small nuclear ribonucleoprotein polypeptides B and B1)","viability hit class":"no change","caspase hit class":"no change","viability robust z-score":-3.92,"caspase robust z-score":-0.14,"call":"inactive"}
{"gene":"HSD17B11 (hydroxysteroid 17-beta dehydrogenase 11)","viability hit class":"no change","caspase hit class":"no change","viability robust z-score":-0.26,"caspase robust z-score":-0.08,"call":"inactive"}
{"gene":"JAK1 (Janus kinase 1)","viability hit class":"no change","caspase hit class":"no change","viability robust z-score":1.33,"caspase robust z-score":-0.53,"call":"inactive"}
{"gene":"ATXN1 (ataxin 1)","viability hit class":"no change","caspase hit class":"no change","viability robust z-score":0.27,"caspase robust z-score":0.3,"call":"inactive"}
{"gene":"METTL26 (methyltransferase like 26)","viability hit class":"no change","caspase hit class":"no change","viability robust z-score":-0.55,"caspase robust z-score":-0.12,"call":"inactive"}
{"gene":"RALGDS (ral guanine nucleotide dissociation stimulator)","viability hit class":"no change","caspase hit class":"no change","viability robust z-score":1.03,"caspase robust z-score":-0.18,"call":"inactive"}
{"gene":"FAM168A (family with sequence similarity 168 member A)","viability hit class":"no change","caspase hit class":"no change","viability robust z-score":-0.7,"caspase robust z-score":0.08,"call":"inactive"}
{"gene":"ZCRB1 (zinc finger CCHC-type and RNA binding motif containing 1)","viability hit class":"no change","caspase hit class":"no change","viability robust z-score":0.83,"caspase robust z-score":-0.5,"call":"inactive"}
{"gene":"RAP1B (RAP1B, member of RAS oncogene family)","viability hit class":"no change","caspase hit class":"no change","viability robust z-score":0.36,"caspase robust z-score":0.18,"call":"inactive"}
{"gene":"TMEM147 (transmembrane protein 147)","viability hit class":"no change","caspase hit class":"no change","viability robust z-score":-0.73,"caspase robust z-score":-0.92,"call":"inactive"}
{"gene":"COQ2 (coenzyme Q2, polyprenyltransferase)","viability hit class":"no change","caspase hit class":"no change","viability robust z-score":-1.3,"caspase robust z-score":1.68,"call":"inactive"}
{"gene":"ASCL4 (achaete-scute family bHLH transcription factor 4)","viability hit class":"no change","caspase hit class":"no change","viability robust z-score":-0.94,"caspase robust z-score":0.26,"call":"inactive"}
{"gene":"KCNRG (potassium channel regulator)","viability hit class":"no change","caspase hit class":"no change","viability robust z-score":-0.2,"caspase robust z-score":1.22,"call":"inactive"}
{"gene":"PPP1R16B (protein phosphatase 1 regulatory subunit 16B)","viability hit class":"no change","caspase hit class":"no change","viability robust z-score":0.55,"caspase robust z-score":0.68,"call":"inactive"}
{"gene":"DDR1 (discoidin domain receptor tyrosine kinase 1)","viability hit class":"no change","caspase hit class":"no change","viability robust z-score":-0.62,"caspase robust z-score":1.66,"call":"inactive"}
{"gene":"SGCE (sarcoglycan epsilon)","viability hit class":"no change","caspase hit class":"no change","viability robust z-score":-0.23,"caspase robust z-score":-0.03,"call":"inactive"}
